In the supplement of paper PMC12819154, “High-throughput peptide-centric local stability assay extends protein–ligand identification to membrane proteins, tissues and bacteria” (Nature Structural & Molecular Biology, 2025) one finds log2 fold change data, which are given here for 35 targets.

Chains of the proteins cited; added tags and fusions are not shown. Lines headed by an entry give the natural chain unless they say otherwise; changes in a name come on top.
UniProt O08609: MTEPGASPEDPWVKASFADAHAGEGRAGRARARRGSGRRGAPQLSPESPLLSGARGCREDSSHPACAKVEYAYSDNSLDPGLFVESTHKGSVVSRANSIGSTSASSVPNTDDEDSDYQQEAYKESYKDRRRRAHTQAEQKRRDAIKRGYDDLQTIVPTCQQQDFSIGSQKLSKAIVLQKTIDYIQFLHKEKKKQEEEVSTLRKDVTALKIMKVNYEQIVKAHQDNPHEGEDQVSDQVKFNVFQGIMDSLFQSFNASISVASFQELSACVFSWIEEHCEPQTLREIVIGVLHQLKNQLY
UniProt O08663: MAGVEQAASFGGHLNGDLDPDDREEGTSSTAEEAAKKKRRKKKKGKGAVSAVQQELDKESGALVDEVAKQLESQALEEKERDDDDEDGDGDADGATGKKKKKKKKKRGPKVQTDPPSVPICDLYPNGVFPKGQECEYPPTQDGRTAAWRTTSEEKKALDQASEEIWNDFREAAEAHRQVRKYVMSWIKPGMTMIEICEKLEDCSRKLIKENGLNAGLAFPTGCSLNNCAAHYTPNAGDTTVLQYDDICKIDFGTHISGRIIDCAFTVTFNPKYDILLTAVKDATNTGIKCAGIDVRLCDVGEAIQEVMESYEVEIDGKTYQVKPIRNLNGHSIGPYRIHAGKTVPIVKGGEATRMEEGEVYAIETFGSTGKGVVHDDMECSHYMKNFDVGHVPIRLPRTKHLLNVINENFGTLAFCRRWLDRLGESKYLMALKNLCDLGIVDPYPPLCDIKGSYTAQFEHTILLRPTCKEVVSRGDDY
UniProt O09005: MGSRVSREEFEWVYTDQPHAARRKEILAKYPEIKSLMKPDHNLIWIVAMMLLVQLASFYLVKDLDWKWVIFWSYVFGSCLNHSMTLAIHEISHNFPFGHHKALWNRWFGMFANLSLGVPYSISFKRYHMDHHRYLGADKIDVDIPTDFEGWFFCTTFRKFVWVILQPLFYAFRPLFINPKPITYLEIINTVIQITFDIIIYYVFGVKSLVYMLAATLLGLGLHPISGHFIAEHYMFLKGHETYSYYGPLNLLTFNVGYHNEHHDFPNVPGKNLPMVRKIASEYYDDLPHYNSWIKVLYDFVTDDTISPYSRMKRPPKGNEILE
UniProt O35350: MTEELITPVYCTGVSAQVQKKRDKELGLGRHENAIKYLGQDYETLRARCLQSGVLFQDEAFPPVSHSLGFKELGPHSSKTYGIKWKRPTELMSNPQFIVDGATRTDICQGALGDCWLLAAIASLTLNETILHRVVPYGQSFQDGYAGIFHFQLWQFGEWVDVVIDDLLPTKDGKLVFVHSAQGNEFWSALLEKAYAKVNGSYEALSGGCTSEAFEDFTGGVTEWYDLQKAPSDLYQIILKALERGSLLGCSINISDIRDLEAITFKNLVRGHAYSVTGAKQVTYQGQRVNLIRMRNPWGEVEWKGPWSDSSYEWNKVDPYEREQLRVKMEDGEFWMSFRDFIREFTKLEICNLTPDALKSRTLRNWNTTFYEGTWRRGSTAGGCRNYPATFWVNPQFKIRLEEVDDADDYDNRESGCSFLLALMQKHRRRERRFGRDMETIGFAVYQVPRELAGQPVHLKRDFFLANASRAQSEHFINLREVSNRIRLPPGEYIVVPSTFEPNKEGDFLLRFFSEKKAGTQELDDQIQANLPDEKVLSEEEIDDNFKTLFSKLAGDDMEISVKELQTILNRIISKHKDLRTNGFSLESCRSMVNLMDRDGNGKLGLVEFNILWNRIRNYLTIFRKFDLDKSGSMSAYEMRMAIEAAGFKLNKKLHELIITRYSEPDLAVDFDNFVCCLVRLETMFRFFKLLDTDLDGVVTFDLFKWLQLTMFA
UniProt O08914, whole entry: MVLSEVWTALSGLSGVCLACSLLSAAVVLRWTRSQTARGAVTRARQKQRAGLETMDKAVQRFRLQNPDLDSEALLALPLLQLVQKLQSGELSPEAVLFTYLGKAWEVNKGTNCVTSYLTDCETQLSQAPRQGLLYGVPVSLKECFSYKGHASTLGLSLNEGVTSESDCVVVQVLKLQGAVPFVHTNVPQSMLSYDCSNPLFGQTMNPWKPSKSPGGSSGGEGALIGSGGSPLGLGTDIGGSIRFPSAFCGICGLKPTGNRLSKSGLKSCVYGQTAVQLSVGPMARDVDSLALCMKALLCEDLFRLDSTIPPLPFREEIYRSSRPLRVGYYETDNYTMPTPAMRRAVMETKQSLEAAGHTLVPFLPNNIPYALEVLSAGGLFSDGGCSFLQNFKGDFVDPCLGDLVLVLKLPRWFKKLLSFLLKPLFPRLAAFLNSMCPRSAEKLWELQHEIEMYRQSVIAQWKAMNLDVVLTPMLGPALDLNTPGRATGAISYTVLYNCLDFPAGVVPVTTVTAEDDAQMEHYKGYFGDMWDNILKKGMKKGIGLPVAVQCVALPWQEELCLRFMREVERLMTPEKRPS
UniProt G3X9J0: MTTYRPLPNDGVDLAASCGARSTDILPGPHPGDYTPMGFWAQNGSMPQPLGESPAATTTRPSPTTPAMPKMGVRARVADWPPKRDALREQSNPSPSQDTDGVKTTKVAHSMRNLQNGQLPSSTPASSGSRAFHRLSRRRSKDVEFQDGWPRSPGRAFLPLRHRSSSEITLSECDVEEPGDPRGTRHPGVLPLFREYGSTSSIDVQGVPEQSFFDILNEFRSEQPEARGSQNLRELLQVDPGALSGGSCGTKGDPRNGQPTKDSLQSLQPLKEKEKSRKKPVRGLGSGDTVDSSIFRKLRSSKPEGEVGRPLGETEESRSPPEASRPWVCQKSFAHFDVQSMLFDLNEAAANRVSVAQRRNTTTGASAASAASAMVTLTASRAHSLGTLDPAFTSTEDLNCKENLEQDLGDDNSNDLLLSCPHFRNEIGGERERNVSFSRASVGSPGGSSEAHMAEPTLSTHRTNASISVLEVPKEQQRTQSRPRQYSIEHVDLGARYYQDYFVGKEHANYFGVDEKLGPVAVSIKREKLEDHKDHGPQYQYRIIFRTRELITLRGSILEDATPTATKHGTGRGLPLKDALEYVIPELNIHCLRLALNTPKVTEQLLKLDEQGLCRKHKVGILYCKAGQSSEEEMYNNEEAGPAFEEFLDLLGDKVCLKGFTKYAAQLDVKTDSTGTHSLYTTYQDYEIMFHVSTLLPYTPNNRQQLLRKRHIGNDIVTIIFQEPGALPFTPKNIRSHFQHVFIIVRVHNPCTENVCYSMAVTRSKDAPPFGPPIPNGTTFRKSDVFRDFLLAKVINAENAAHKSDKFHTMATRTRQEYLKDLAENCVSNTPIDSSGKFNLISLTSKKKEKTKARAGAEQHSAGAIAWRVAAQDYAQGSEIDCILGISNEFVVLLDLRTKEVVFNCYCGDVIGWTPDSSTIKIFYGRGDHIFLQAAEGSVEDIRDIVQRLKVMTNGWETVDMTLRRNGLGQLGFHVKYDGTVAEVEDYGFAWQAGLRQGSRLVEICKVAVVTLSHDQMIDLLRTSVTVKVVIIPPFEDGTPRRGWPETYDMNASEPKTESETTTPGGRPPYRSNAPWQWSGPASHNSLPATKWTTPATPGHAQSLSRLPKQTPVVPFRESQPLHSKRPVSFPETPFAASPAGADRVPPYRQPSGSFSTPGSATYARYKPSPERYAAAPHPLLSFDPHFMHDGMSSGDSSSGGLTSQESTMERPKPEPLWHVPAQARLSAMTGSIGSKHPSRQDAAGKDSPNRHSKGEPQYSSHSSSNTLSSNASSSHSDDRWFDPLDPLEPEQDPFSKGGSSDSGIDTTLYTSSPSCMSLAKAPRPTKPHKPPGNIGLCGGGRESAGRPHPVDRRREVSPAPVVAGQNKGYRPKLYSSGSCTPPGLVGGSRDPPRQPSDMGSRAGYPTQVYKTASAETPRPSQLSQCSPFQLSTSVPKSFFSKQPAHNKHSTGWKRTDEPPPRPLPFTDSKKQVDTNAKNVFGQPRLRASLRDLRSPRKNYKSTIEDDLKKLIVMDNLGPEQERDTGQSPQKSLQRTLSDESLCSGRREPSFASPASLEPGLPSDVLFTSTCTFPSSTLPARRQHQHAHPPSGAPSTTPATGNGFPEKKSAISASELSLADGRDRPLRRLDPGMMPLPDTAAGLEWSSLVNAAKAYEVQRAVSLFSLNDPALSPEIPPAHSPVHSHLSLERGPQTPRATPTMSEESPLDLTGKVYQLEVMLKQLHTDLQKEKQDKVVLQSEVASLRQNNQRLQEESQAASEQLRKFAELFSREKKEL
UniProt O35465: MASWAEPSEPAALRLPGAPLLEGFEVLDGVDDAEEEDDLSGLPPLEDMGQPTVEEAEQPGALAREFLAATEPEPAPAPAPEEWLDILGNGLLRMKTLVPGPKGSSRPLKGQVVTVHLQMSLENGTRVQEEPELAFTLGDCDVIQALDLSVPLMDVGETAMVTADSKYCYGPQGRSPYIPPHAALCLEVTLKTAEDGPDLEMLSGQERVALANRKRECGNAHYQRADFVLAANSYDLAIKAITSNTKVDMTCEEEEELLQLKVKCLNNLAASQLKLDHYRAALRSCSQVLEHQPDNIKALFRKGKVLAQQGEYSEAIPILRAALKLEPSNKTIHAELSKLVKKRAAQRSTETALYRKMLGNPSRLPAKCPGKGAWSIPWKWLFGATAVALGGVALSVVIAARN
UniProt O35239: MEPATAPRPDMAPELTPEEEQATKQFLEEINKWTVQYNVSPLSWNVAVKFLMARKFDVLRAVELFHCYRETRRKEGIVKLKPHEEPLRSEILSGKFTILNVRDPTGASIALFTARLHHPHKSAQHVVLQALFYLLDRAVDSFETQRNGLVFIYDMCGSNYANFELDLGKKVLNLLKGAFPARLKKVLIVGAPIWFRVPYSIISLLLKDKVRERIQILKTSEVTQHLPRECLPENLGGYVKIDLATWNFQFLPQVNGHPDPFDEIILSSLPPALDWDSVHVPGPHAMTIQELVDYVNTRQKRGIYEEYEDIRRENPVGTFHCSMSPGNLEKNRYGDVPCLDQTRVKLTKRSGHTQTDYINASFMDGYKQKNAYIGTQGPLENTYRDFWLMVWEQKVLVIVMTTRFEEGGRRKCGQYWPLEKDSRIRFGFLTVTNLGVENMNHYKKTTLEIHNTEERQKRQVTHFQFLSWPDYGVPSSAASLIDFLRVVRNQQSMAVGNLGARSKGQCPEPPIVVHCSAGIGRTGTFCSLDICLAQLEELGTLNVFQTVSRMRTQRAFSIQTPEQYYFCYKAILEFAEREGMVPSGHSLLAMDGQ
UniProt O35343, whole entry: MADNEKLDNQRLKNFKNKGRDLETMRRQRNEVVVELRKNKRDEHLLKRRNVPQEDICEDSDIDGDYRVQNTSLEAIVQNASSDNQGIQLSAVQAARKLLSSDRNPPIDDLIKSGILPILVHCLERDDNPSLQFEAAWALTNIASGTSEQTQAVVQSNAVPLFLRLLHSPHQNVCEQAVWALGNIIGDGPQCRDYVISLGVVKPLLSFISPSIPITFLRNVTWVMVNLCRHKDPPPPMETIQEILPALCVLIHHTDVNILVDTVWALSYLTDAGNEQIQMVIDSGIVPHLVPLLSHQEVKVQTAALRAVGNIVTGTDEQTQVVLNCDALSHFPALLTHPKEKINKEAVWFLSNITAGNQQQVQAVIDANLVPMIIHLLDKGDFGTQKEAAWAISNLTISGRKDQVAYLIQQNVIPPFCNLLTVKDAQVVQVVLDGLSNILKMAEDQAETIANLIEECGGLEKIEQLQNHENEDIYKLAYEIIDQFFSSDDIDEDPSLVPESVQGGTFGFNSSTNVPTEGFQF
UniProt E9Q942: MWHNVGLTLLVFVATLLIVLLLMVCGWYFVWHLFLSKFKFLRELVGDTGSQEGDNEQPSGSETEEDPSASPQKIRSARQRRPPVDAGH
UniProt O08789: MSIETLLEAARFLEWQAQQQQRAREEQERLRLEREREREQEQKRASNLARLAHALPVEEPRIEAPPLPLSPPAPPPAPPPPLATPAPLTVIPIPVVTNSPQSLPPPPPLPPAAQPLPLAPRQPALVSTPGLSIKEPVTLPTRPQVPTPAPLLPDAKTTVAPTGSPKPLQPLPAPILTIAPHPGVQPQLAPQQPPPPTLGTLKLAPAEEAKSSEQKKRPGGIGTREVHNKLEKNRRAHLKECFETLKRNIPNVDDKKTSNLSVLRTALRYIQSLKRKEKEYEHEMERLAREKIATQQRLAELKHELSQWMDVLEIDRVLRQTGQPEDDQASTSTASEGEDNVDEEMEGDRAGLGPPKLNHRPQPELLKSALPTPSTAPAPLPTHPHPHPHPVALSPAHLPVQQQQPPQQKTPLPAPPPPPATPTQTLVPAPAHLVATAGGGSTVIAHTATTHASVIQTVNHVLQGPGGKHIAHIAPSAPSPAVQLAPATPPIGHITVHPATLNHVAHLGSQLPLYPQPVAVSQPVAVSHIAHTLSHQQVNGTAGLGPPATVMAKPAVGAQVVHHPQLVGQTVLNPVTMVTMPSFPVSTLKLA

The list shows a part of the results. Small differences around the control level are noise.

Compound in this test: CN[C@@H]1C[C@H]2O[C@@](C)([C@@H]1OC)n1c3ccccc3c3c4c(c5c6ccccc6n2c5c31)C(=O)NC4 [staurosporine]
The test is described as follows: log2 fold change of tryptic peptide abundance, ligand vs vehicle (limited proteolysis) (log2 ratio); higher = more trypsin-susceptible (destabilized). As to conditions: ligand concentration: 20 uM; sample: mouse liver crude lysate; replicate design: treated separately.
Regarding “UniProt O08609 (peptide sequence: IMKVNYEQIVK, peptide start residue: 210)”, the log2 fold change is -0.34.
On to “UniProt B9EKI3 (peptide sequence: QVLDGKEEVEK, peptide start residue: 607)”, for which the log2 fold change stood at 0.691.
Under “UniProt O08663 (peptide sequence: ERDDDDEDGDGDADGATGKK, peptide start residue: 80)” stands -0.937.
Under “UniProt O09005 (peptide sequence: VSREEFEWVYTDQPHAAR, peptide start residue: 5)” stands 0.413; under “UniProt O08677 (peptide sequence: ERFPSLHGDCVALPNGDDGECR, peptide start residue: 208)”, -0.695; under “UniProt E9Q7E2 (peptide sequence: DALLAGLKQDEPGQVANQK, peptide start residue: 1688)”, -0.266.
To “UniProt O35242 (peptide sequence: EHNIVAPYKIER, peptide start residue: 117)” belongs -0.3; to “UniProt O35345 (peptide sequence: IQAVIDSGVCRR, peptide start residue: 287)”, -0.427.
Take “UniProt O09012 (peptide sequence: YNLGISCINLGAHR, peptide start residue: 560)”: the log2 fold change is -0.14.
On to “UniProt O35450 (peptide sequence: KVLAVDPK, peptide start residue: 309)”, for which the log2 fold change was -0.105.
In the case of “UniProt O08966 (peptide sequence: AKENTIYLQVQTGK, peptide start residue: 539)”, the log2 fold change is -0.491.
Under “UniProt B8JKV0 (peptide sequence: SCDISDVALQHLCK, peptide start residue: 70)” stands 0.577; under “UniProt E9PUQ8 (peptide sequence: VLCETVKDFVAR, peptide start residue: 506)”, -0.306.
On to “UniProt O08739 (peptide sequence: LNMSDLDEHVR, peptide start residue: 8)”, for which the log2 fold change stood at 0.195.
Under “UniProt O35286 (peptide sequence: YYDILKK, peptide start residue: 127)” stands 0.14; under “UniProt B9EJ57 (peptide sequence: ISASQIIENPR, peptide start residue: 322)”, 0.179; under “UniProt D3Z7P3 (peptide sequence: EMVAAGDNK, peptide start residue: 127)”, 0.13.
To “UniProt O35350 (peptide sequence: TNGFSLESCR, peptide start residue: 581)” belongs 0.106.
Regarding “UniProt O08914 (peptide sequence: AGLETMDK, peptide start residue: 50)”, the log2 fold change was 0.15.
To “UniProt D3YZU1 (peptide sequence: LYSAVPGR, peptide start residue: 466)” belongs 0.226; to “UniProt E9Q5F9 (peptide sequence: VKNDQLR, peptide start residue: 657)”, 0.674; to “UniProt G3X9J0 (peptide sequence: FAELFSR, peptide start residue: 1765)”, -0.402.
Under “UniProt E9Q912 (peptide sequence: SVAQQASLTEQR, peptide start residue: 591)” stands 0.178; under “UniProt O35185 (peptide sequence: LTTLGHLEK, peptide start residue: 85)”, 0.482.
To “UniProt O35465 (peptide sequence: VKCLNNLAASQLK, peptide start residue: 262)” belongs -0.227.
As for “UniProt E9PZJ8 (peptide sequence: KAGEDGEVSGEGVLPFDPK, peptide start residue: 353)”, the log2 fold change is -0.397.
Turning to “UniProt O35295 (peptide sequence: RFYLDVK, peptide start residue: 57)”, the log2 fold change is 0.137.
As for “UniProt O08917 (peptide sequence: LTGVSISQVNHNKPLR, peptide start residue: 411)”, the log2 fold change was -0.179.
Under “UniProt O08811 (peptide sequence: GAILLSVAR, peptide start residue: 593)” stands 0.36.
In the case of “UniProt F8VPZ3 (peptide sequence: MLHVVDGKVPDTLR, peptide start residue: 119)”, the log2 fold change is -0.514.
On to “UniProt O35239 (peptide sequence: NQQSMAVGNLGAR, peptide start residue: 489)”, for which the log2 fold change is 0.214.
Under “UniProt O35343 (peptide sequence: KLLSSDRNPPIDDLIK, peptide start residue: 97)” stands 0.278; under “UniProt E9Q942 (peptide sequence: QRRPPVDAGH, peptide start residue: 79)”, -0.231; under “UniProt E9Q735 (peptide sequence: EKEAGLQMFGQLAR, peptide start residue: 793)”, -0.476.
Under “UniProt O08789 (peptide sequence: TSNLSVLR, peptide start residue: 257)” stands -0.388.
